Assay results as given in patent publication US20060228349A1.
These are yes or no findings as the source states them, for the method shown. Some binding calls cover weakened binding; strength is not graded here.

Molecular target: Biotinylated ADDL preparations (bADDLs)
Experiment: titration ELISA, 10% biotinylated ADDL on streptavidin plates

binding	Binder
binds	humanized 26D6, veneered, HCVR Ven1 IgG1 / LCVR Ven1 Kappa (antibody, V domains shown) VH: QVTLKESGPGIVQPSQTLSLTCSFSGFSLSTSGMGVSWIRQPSGKGLEWLAHIYWDDDKQYNPSLKSRLTISKDTSKNQVFLTITSVDTVDTATYYCVRRASSSRYDDQFDYWGQGTPLTVSS VL: DVVMTQTPLSLPVSLGDPASISCRASQSIVHSNGNTYLEWYLQKPGQSPKLLIYRVSNRFSGVPDRFSGSGSGTDFTLKISRVEAEDLGVYFCFQVTHVPLTFGAGTKLELKR
binds	humanized 26D6, veneered, HCVR Ven1 IgG1 / LCVR Ven2 Kappa (antibody, V domains shown) VH: QVTLKESGPGIVQPSQTLSLTCSFSGFSLSTSGMGVSWIRQPSGKGLEWLAHIYWDDDKQYNPSLKSRLTISKDTSKNQVFLTITSVDTVDTATYYCVRRASSSRYDDQFDYWGQGTPLTVSS VL: DVVMTQTPLSLPVSLGDPASISCRASQSIVHSNGNTYLEWYLQKPGQSPKLLIYRVSNRFSGVPDRFSGSGSGTDFTLKISRVEAEDVGVYFCFQVTHVPLTFGGGTKLELKR
